Measured values: patent publication US5834457A, “Method of modulating radical formation by mutant cuznsod enzymes” (The Regents of the University of California, priority 1996, dated 1998)
Entries after “also recorded” stand apart in the source; their conditions may differ. At least one structure is not confirmed: it was looked up by name or label, or the drawing left a doubt.

The chains behind the UniProt entries cited, without tags or fusion partners.
UniProt P00441, whole entry: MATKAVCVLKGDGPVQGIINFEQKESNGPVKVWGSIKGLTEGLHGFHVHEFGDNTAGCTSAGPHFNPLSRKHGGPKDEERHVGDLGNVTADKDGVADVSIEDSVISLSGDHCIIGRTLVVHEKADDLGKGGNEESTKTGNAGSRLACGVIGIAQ

Columns and labels:
CuZnSOD mutant A4V [1] = assay: Hydroxyl radical formation (peroxidase activity), EPR of DMPO-OH adduct, with DDC; format: biochemical, human
CuZnSOD mutant G93A [2] = assay: as above; format: biochemical, human
wild type CuZnSOD = wild type CuZnSOD (Homo sapiens, UniProt P00441); assay: SOD activity of purified enzyme with DDC; format: biochemical
CuZnSOD mutant A4V [3] = assay: SOD activity of purified enzyme with DDC; format: biochemical, human
CuZnSOD mutant G93A [4] = assay: SOD activity of purified enzyme with DDC; format: biochemical, human
[5] = test system: CSM 14.1 cells expressing mutant CuZnSODs A4V, G37R, G41D, G85R; assay: Neural cell culture model of FALS: apoptosis/viability after serum withdrawal; format: cell-based, rat
Procedure: (§1) The conditionally-immortalized rat nigral neural cell line CSM 14.1 (M. Durand, et al., Soc. Neurosci. Abs. 16:40 (1990); and L. T. Zhong, et al., Proc. Natl. Acad. Sci. U.S.A. 90:4533 (1993)) was transfected with vectors carrying wild type CuZnSOD or the mutant CuZnSODs A4V, G37R, G41D, or G85R.
(§2) Next the […] efficacy of DDC was tested. Temperature-sensitive nigral neural cells (SCM 14.1) were transfected with wild type and A4V, G37R, G85R, and G41D mutant CuZnSOD constructs by methods described previously (Rabizadeh (1995), supra). Following selection in puromycin (7 μg/ml), cells were plated onto 96-well plates.
(§3) This was calculated as follows:
(§4) viability=[Vm(x)-Vm(0)]/[Vc(0)-Vm(0)]
(§5) Standard errors were computed by the delta method for computing the asymptotic standard error for the estimate of a nonlinear function (D. Colquhoun, Lectures on Biostatistics (Clarendon Press, 1971) pp. 39-42).

[6] = test system: CSM 14.1 cells overexpressing wild type CuZnSOD; assay: as above; format: cell-based, rat; conditions: any DDC concentration (25 μM-1 mM); 60 hours
Procedure: as §1, §2, §3, §4, §5

[7] = 0.25 equivalents DDC (0.62 μM) per enzyme subunit copper, 1.25 μM enzyme
[8] = increasing concentrations of DDC
[9] = 4 equivalents DDC/enzyme copper
[10] = 0.25 equivalents of DDC per copper

With `CCN(CC)C(=S)S` [DDC, Diethyldithiocarbamate] as the molecule, how does the “hydroxyl radical production compared to production without DDC” value (CuZnSOD mutant A4V [1]; [7]) read?
Its value is 22%.

And the “peroxidase activity / DMPO-OH adduct production on addition of DDC” value (CuZnSOD mutant A4V [1]; [8])?
Its value is “progressive decrease; also recorded: sharp decrease”.

And the “hydroxyl radical production compared to production without DDC” value (CuZnSOD mutant G93A [2]; [7])?
Its value is 32%.

What about the “peroxidase activity / DMPO-OH adduct production on addition of DDC” value (CuZnSOD mutant G93A [2]; [8]) of the same molecule?
The value was “progressive decrease; also recorded: sharp decrease”.

And the “effect on SOD activity” value (wild type CuZnSOD; [9])?
Its value is “had an impact”.

What about the “effect on enzymatic (SOD) activity” value (wild type CuZnSOD; equimolar DDC relative to enzyme subunit copper) of the same molecule?
The value was “no effect”.

And the “effect on SOD activity” value (wild type CuZnSOD; less than 1 equivalent DDC/enzyme copper)?
Its value is “little effect”.

What about the “effect on enzymatic (SOD) activity” value (CuZnSOD mutant A4V [3]; [10]) of the same molecule?
Its value is “inhibited”.

And the “effect on SOD activity” value (CuZnSOD mutant A4V [3]; [9])?
The value was “had an impact”.

And the “effect on enzymatic (SOD) activity” value (CuZnSOD mutant G93A [4]; [10])?
Its value is “inhibited”.

What about the “effect on SOD activity” value (CuZnSOD mutant G93A [4]; [9]) of the same molecule?
Its value is “had an impact”.

And the improvement in survival ([5]; 25-500 μM DDC, 60 hours, p<0.01, except G41D and G85R at some concentrations)?
The improvement in survival was “highly significant improvements in survival”.

What about the “effect on cell viability” value ([5]; DDC 500 μM) of the same molecule?
The value was “continued to rescue”.

And the improvement in viability [6]?
The improvement in viability was “no significant improvement”.
